Measured values as given in publication PMC8093035.
Results are given in words; binding and its absence hold for the method and conditions named. Binding seen in cells or lysates may run through a third protein. Some binding calls cover weakened binding; strength is not graded here.

The chains behind the UniProt entries cited, without tags or fusion partners.
UniProt Q92973: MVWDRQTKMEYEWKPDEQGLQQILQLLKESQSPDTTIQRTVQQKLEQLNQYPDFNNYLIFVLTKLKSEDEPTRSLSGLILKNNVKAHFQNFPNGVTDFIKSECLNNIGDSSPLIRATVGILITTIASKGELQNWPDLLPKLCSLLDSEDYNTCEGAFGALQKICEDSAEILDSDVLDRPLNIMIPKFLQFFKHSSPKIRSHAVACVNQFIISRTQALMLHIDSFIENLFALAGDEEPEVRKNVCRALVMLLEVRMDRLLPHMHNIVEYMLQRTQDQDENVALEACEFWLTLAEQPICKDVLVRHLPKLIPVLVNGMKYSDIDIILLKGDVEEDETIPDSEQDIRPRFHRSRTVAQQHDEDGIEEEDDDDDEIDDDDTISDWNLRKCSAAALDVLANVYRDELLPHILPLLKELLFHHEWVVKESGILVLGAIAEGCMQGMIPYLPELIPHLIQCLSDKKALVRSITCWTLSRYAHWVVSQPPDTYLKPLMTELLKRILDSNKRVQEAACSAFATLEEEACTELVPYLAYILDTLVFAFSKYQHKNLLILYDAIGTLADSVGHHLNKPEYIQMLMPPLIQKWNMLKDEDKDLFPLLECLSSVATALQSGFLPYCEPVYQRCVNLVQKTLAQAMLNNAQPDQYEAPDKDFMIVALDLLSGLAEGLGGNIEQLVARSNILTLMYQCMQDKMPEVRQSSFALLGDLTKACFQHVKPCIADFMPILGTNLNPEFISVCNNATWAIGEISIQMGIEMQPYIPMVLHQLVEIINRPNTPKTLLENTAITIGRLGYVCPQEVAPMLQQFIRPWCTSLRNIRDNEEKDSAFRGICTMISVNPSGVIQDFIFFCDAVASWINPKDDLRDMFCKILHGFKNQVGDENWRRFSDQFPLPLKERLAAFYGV
UniProt Q96AE4: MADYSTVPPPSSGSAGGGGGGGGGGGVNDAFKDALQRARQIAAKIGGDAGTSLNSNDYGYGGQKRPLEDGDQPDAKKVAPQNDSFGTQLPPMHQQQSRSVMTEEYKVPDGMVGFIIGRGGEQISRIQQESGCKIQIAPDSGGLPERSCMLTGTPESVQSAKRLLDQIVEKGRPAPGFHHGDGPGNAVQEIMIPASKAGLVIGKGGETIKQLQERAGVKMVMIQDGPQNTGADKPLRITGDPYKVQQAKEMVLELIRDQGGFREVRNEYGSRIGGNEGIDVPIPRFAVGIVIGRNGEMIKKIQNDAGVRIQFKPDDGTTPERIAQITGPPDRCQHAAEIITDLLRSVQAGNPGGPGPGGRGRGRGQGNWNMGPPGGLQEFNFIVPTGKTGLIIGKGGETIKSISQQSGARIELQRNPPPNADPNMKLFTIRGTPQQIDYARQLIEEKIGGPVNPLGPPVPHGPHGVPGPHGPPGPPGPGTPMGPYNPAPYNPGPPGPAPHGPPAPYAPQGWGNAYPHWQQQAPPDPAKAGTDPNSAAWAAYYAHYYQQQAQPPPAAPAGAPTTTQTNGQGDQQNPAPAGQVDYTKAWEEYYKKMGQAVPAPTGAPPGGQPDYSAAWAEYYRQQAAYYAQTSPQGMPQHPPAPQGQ

Key:
[1] = target: Transportin-1 (human (endogenous in MS751 and Siha)) (UniProt Q92973); test: co-IP; immunoprecipitation of FUBP1 or of TNPO1 from MS751 and Siha cells, immunoblot of the other protein; protocol as in ref. 21
[2] = target: Far upstream element binding protein 1 (human (endogenous in MS751 and Siha)) (UniProt Q96AE4); test: as above

binding [1]	binding [2]	Substance
binds	–	Far upstream element binding protein 1 (from UniProt Q96AE4 1-644)
–	binds	Transportin-1 (from UniProt Q92973 1-898)
